This is one part of the list. Many values rest on one well or one pass, so single values are uncertain.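 Imaging used 1,536-well plates; nuclei positive for cleaved PARP by antibody were divided by total DNA-stained nuclei to yield the apoptosis fraction. Doses for screening kept most cells viable, and cell lines differ markedly in resting and induced cleaved-PARP levels.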
test system: WM3619; test: cleaved PARP positive nuclei fraction relative to DMSO control; melanoma cells; higher = more apoptosis; conditions: library dose: low library concentration; 72 h

| SMILES | cleaved PARP positive nuclei fraction [%] |
| --- | --- |
| C=CCNC1=C2C[C@@H](C)C[C@H](OC)[C@H](O)[C@@H](C)/C=C(\C)[C@H](OC(N)=O)[C@@H](OC)/C=C\C=C(/C)C(=O)NC(=CC1=O)C2=O [Tanespimycin] + Clc1ccc(Nc2nnc(Cc3ccncc3)c3ccccc23)cc1 [vatalanib] (first compound 0.002 µM, partner dose 2 µM) | 152 |
| COCC[n+]1c2c(n(Cc3cnccn3)c1C)C(=O)c1ccccc1C2=O + Nc1cccc2c1CN(C1CCC(=O)NC1=O)C2=O [lenalidomide] (first compound 0.0004 µM, partner dose 1 µM) | 86.9 |
| C#Cc1cccc(Nc2ncnc3cc(OCCOC)c(OCCOC)cc23)c1 [erlotinib] + C[C@]1(c2nc3c(C(N)=O)cccc3[nH]2)CCCN1 [Veliparib] (first compound 0.8 µM, partner dose 1.4 µM) | 89 |
| CC(=O)c1c(C)c2cnc(Nc3ccc(N4CCNCC4)cn3)nc2n(C2CCCC2)c1=O [palbociclib] + C#Cc1cccc(Nc2ncnc3cc(OCCOC)c(OCCOC)cc23)c1 [erlotinib] (first compound 0.04 µM, partner dose 0.8 µM) | 142 |
| Nc1cccc2c1CN(C1CCC(=O)NC1=O)C2=O (stereo not given) [lenalidomide] + COc1cc(Nc2ncc(F)c(Nc3ccc4c(n3)NC(=O)C(C)(C)O4)n2)cc(OC)c1OC [Tamatinib] (first compound 1 µM, partner dose 0.4 µM) | 89.4 |
| C[C@]1(c2nc3c(C(N)=O)cccc3[nH]2)CCCN1 [Veliparib] + CC(C)(C)c1cnc(CSc2cnc(NC(=O)C3CCNCC3)s2)o1 [SNS-032] (first compound 1.4 µM, partner dose 0.01 µM) | 119 |
| Cc1nc(Nc2ncc(C(=O)Nc3c(C)cccc3Cl)s2)cc(N2CCN(CCO)CC2)n1 [dasatanib] + Nc1cccc2c1CN(C1CCC(=O)NC1=O)C2=O [lenalidomide] (first compound 0.004 µM, partner dose 1 µM) | 100 |
| CC(=O)c1c(C)c2cnc(Nc3ccc(N4CCNCC4)cn3)nc2n(C2CCCC2)c1=O [palbociclib] + OCc1c[nH]c2ccccc12 [Indole-3-carbinol] (first compound 0.04 µM, partner dose 0.8 µM) | 133 |
| Clc1ccc(Nc2nnc(Cc3ccncc3)c3ccccc23)cc1 [vatalanib] + COCC[n+]1c2c(n(Cc3cnccn3)c1C)C(=O)c1ccccc1C2=O [YM155] (first compound 2 µM, partner dose 0.0004 µM) | 97.3 |
| CC1(C)NC(=O)N(c2ccc([N+](=O)[O-])c(C(F)(F)F)c2)C1=O [nilutamide] + O=C(Nc1cccc(Cl)c1)Nc1ncc(CCNc2ncnc3ccsc23)s1 [SNS314] (first compound 1 µM, partner dose 0.0008 µM) | 59.6 |
| Nc1cccc2c1CN(C1CCC(=O)NC1=O)C2=O (stereo not given) [lenalidomide] + C[C@]1(c2nc3c(C(N)=O)cccc3[nH]2)CCCN1 [Veliparib] (first compound 1 µM, partner dose 1.4 µM) | 90.9 |
| OCc1c[nH]c2ccccc12 [Indole-3-carbinol] + COc1ccc(Cl)c(Nc2nc3ccccc3nc2NS(=O)(=O)c2cccc(NC(=O)C(C)(C)N)c2)c1 [XL147] (first compound 0.8 µM, partner dose 0.8 µM) | 77.5 |
| CC(=O)c1c(C)c2cnc(Nc3ccc(N4CCNCC4)cn3)nc2n(C2CCCC2)c1=O [palbociclib] + Clc1ccc(Nc2nnc(Cc3ccncc3)c3ccccc23)cc1 [vatalanib] (first compound 0.04 µM, partner dose 2 µM) | 316 |
| Cn1nnc2c(C(N)=O)ncn2c1=O [temozolomide] + C[C@@H]1CCN(C(=O)CC#N)C[C@@H]1N(C)c1ncnc2[nH]ccc12 [CP690550] (first compound 2 µM, partner dose 1 µM) | 90.8 |
| Cc1nc(Nc2ncc(C(=O)Nc3c(C)cccc3Cl)s2)cc(N2CCN(CCO)CC2)n1 [dasatanib] + Cn1nnc2c(C(N)=O)ncn2c1=O [temozolomide] (first compound 0.004 µM, partner dose 2 µM) | 84.9 |

Given with tabs: entries from further up
SMILES	cleaved PARP positive nuclei fraction [%]
COCC[n+]1c2c(n(Cc3cnccn3)c1C)C(=O)c1ccccc1C2=O + Nc1cccc2c1CN(C1CCC(=O)NC1=O)C2=O [lenalidomide] (first compound 0.0004 µM, partner dose 1 µM)	86.9
C#Cc1cccc(Nc2ncnc3cc(OCCOC)c(OCCOC)cc23)c1 [erlotinib] + C[C@]1(c2nc3c(C(N)=O)cccc3[nH]2)CCCN1 [Veliparib] (first compound 0.8 µM, partner dose 1.4 µM)	89

Source: the supplement of paper PMC4604168 (melanoma cell lines)
